The record followed here is publication PMC8799692.

No constants are given. Whether binding was seen depends on the method and setting. Binding seen in cells or lysates may run through a third protein. A yes stands for co-enrichment or nearness to the bait. Other partners may have been found.

In this assay the target is T1, ARAF (mouse (endogenous in NRAS-mutated murine melanoma cells)) (UniProt P04627).
T1 sequence: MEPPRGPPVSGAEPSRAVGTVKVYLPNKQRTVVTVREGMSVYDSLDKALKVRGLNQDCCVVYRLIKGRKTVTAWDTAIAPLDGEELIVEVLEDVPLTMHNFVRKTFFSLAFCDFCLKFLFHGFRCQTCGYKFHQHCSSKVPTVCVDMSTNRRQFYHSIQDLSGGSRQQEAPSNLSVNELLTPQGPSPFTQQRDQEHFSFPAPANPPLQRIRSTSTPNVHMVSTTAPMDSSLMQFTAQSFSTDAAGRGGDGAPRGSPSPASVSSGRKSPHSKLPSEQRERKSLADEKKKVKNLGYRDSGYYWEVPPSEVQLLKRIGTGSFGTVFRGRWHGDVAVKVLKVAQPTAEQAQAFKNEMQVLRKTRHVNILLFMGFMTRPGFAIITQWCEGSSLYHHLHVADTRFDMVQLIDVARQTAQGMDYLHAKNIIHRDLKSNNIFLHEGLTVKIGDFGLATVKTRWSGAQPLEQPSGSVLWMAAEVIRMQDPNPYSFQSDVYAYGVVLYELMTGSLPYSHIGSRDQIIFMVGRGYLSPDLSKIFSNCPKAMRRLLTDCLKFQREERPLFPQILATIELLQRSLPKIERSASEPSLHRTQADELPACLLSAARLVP
The experiment in a line: affinity purification with mass spectrometry; endogenous ARAF immunoprecipitated (ARAF antibody, protein-A magnetic beads, 4 °C, 4 hours) from 1 mg NP40-buffer lysate of ARAF-only cells against control cells with shRNA against ARAF; label-free quantification.

B1: Iap (protein, UniProt P03975 1-557)
chain: MALQVMFGLEFFLVLEALLFLFTCYQVVKAGRILDEIQDKLSEVKRGERVGTKRKYGTQNKYTGLSKGLEPEEKLRLGRNTWREIRRKRGKREKKKDQLAEVSRKRSLCSSLDGLGKPALSSSEAGEESSSEETDWEEEAAHYQPANWSRKKPKAAGEGQFADWPQGSRLQGPPYAESPPCVVRQQCAERCAERQCAERQCADSFIPREEQRKIQQAFPVFEGAEGGRVHAPVEYLQIKEIAESVRKYGTNANFTLVQLDRLAGMALTPADWQTVVKAALPSMGKYMEWRALWHEAAQAQARANAAALTPEQRDWTFDLLTGQGAYSADQTNYHWGAYAQISSTAIRPGRRSRAGETTGQLTKIIQGPQESFSDFVARMTEAAERIFGESEQAAPLIEQLIYEQATKECRAVHSPKKEQRLTRLAQGLSRAWGKPRLLKTDNGPAYTSQKFQQFCRQMDVTHLTGLPYNPQGQGIVERAHRTLKAYLIKQKRGTFEETVPRAPRVSVSLALFTLNFLNIDAHGHTAAERHVQSQIGPMRWLNGKMSLIINGMARILS
As for B1, the binding entry was “binds”.
